Source: the supplement of paper PMC10849652
The list shows a part of the results.

Amino acid sequences for entries named in this document (tags omitted). A change or cut given only in a name is not applied to a line headed by its entry.
UniProt P28330: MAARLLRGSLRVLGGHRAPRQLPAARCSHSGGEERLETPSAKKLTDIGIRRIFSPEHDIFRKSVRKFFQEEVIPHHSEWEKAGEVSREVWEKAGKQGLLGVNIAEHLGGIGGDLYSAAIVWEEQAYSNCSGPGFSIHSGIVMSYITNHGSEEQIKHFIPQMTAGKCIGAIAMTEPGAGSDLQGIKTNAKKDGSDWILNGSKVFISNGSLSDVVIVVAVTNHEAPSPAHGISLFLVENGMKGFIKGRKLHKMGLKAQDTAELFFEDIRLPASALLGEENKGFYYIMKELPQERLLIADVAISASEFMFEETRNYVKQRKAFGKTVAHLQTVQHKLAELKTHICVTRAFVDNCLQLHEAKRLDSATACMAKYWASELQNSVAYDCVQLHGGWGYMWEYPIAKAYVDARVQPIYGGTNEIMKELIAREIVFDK
UniProt P80404: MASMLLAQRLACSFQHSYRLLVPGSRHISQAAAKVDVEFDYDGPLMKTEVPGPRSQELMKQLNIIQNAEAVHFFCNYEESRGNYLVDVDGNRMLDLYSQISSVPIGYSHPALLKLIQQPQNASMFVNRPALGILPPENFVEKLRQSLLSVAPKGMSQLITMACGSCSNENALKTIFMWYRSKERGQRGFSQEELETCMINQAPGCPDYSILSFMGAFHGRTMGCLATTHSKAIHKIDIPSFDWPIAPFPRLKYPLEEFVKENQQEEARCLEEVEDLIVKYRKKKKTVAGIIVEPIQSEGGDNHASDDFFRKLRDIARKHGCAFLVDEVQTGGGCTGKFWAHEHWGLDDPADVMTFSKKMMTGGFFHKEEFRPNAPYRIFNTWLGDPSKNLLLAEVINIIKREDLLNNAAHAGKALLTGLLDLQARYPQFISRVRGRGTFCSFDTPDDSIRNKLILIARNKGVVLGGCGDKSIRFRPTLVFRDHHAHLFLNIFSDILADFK
UniProt Q96QU6: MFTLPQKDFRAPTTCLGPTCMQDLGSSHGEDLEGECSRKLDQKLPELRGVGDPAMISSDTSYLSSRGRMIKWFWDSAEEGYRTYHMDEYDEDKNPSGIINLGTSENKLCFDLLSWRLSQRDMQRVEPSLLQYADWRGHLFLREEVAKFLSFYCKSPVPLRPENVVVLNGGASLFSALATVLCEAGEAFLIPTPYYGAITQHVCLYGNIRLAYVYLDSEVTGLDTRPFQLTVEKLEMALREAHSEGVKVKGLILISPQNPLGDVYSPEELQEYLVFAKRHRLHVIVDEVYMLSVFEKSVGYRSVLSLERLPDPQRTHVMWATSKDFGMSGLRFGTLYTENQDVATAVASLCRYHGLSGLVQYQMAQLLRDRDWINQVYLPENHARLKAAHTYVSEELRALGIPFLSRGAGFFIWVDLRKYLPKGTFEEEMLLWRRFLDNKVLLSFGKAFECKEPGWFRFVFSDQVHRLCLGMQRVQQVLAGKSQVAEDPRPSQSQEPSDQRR
UniProt Q9P1F3: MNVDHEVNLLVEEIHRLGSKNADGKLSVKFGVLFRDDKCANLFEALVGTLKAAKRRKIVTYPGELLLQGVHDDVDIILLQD
UniProt O95342, whole entry, looked up: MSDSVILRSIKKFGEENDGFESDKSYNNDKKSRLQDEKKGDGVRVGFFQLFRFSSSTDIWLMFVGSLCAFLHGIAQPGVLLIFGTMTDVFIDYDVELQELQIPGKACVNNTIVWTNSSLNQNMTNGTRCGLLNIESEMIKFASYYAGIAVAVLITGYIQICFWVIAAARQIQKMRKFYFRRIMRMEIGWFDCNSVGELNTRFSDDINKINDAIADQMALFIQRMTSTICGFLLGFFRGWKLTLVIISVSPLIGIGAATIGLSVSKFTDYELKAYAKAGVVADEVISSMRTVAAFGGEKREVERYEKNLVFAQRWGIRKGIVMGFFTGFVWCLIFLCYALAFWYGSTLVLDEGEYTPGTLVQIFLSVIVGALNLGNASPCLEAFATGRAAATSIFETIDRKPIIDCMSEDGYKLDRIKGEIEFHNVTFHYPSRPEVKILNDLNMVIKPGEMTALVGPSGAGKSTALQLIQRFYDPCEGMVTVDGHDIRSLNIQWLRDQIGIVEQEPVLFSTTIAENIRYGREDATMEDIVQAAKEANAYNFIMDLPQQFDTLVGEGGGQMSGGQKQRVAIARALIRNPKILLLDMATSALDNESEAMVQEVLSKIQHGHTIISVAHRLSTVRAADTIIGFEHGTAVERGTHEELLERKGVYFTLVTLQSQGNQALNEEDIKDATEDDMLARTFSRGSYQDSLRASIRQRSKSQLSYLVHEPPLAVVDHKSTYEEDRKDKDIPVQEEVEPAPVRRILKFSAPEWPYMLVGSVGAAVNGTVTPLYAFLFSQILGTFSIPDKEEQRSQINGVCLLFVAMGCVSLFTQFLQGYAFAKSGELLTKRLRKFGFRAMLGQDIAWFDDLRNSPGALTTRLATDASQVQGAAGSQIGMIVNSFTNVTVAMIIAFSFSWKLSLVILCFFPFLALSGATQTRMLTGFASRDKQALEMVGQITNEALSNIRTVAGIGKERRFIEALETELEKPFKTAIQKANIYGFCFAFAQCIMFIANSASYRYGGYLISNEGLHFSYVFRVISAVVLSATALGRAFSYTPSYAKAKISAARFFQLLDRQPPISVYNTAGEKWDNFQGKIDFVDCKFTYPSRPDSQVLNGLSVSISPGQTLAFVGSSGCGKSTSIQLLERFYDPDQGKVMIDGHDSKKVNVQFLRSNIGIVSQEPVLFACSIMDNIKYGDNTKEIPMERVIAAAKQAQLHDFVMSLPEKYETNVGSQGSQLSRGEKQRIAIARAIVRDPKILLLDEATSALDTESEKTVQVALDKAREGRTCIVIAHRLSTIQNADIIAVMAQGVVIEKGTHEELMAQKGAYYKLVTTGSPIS
UniProt Q8N6N7: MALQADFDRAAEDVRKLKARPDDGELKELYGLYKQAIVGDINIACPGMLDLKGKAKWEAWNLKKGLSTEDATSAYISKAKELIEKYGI
UniProt Q8TB40: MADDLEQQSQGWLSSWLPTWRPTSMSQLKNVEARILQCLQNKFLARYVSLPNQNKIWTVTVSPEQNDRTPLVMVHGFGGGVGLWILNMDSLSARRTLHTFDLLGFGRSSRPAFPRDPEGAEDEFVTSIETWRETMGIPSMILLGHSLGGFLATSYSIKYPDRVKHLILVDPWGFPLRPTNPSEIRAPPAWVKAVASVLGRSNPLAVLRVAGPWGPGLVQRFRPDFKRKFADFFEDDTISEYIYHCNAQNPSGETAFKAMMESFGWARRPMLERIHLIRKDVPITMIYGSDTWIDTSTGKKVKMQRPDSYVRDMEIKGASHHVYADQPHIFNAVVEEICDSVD
UniProt Q86TW2: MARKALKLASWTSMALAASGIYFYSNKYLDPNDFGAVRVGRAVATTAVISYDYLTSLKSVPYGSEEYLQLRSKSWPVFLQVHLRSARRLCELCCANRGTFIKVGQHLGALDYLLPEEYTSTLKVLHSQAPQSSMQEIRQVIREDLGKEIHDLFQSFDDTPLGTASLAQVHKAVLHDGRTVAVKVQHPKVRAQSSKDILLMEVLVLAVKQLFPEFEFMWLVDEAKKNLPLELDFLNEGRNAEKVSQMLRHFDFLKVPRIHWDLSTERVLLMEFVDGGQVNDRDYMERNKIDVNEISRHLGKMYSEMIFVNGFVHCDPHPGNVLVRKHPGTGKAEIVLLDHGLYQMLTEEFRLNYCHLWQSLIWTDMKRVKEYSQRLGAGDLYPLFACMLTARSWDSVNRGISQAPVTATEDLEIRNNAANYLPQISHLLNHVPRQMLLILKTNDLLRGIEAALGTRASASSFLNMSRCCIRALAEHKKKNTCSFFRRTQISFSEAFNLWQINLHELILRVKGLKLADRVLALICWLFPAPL
UniProt Q9BTE6: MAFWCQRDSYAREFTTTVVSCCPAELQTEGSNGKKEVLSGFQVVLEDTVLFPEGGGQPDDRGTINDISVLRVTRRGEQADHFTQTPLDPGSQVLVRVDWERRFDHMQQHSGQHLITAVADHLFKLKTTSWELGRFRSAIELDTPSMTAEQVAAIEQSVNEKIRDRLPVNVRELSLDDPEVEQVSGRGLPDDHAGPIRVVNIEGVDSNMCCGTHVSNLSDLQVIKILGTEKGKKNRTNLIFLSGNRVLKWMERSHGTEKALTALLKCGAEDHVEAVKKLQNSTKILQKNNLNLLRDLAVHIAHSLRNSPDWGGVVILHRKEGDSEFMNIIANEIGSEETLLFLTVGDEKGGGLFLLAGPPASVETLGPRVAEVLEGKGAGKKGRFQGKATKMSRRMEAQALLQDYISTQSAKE
UniProt P14621: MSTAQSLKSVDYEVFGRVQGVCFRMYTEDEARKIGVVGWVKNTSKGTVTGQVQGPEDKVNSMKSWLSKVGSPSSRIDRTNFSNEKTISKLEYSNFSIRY
UniProt Q86V21: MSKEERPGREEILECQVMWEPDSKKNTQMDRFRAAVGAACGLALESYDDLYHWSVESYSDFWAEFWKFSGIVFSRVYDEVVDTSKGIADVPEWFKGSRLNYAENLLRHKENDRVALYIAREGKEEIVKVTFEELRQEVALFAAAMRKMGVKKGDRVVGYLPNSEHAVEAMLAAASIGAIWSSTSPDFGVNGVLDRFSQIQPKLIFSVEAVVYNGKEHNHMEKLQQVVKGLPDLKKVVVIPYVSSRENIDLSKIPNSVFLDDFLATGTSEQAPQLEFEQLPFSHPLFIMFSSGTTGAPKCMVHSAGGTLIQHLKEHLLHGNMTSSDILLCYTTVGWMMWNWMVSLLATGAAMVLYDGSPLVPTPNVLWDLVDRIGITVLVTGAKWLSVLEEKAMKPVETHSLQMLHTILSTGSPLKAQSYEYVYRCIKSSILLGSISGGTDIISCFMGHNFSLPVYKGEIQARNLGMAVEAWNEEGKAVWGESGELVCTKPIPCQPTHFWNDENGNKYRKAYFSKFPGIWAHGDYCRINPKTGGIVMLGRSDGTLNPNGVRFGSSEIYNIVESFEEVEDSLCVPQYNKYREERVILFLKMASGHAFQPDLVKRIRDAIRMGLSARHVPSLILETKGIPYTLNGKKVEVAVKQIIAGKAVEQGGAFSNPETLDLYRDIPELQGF
UniProt Q15067: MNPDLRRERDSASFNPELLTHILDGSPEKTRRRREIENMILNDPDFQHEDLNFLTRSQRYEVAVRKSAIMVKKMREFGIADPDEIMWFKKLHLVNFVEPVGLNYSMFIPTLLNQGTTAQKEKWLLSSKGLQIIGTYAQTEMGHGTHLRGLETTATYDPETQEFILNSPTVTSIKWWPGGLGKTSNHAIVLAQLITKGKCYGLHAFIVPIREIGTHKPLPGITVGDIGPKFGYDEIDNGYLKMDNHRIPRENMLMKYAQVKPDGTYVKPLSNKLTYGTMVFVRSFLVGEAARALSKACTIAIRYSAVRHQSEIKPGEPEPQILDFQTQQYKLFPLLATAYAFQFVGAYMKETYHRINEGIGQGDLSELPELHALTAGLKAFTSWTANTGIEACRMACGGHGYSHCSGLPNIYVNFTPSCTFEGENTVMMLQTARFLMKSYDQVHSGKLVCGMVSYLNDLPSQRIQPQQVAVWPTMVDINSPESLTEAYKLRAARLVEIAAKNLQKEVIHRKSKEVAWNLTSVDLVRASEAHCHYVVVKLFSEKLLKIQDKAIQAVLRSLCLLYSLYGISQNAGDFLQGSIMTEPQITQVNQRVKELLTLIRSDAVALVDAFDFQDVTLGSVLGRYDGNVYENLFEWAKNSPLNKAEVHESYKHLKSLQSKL
UniProt Q96M93: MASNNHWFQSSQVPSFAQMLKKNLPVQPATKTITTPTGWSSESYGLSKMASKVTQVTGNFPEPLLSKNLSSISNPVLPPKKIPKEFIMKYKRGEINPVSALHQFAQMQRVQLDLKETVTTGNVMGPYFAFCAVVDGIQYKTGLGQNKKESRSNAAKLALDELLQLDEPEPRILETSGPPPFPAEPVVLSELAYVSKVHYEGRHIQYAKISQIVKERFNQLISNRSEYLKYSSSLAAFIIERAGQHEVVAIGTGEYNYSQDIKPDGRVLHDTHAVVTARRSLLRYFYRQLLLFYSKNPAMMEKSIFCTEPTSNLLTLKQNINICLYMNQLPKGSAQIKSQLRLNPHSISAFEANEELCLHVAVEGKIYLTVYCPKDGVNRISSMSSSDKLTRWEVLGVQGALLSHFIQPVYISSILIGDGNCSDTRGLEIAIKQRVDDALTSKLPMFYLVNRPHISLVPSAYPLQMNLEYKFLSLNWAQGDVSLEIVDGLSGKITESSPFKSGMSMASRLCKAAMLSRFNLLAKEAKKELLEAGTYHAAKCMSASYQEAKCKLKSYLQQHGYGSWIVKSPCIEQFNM
UniProt Q9BV23: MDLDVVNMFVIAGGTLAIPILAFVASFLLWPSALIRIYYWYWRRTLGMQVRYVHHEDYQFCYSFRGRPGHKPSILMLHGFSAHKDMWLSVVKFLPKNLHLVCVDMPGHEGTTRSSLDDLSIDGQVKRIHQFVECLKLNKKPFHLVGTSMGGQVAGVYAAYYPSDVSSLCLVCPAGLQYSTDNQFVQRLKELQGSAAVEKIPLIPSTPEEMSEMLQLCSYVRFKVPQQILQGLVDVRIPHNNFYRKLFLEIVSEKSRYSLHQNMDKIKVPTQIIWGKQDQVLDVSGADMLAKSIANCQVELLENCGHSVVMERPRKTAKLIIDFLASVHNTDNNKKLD

Legend:
Experiment in all cases: log2 fold change, soluble protein after heating vs DMSO (PISA); higher = thermal stabilisation; K562 cells, 10 uM, 30 min; active = over 0.2 and 3.5 SD of the protein, either way, in both replicates (recomputed)
[1] = compound: NC(=O)Nc1cc(-c2cccc(F)c2)sc1C(=O)N[C@H]1CCCNC1
In short: (§1)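 K562 cells at 2×10^6 cells/mL were treated with 10 μM compound for 30 min. Aliquots were heated for 3 min across 48°C-58°C, pooled, and extracted in PBS with 0.5% NP-40 at 4°C; soluble protein was the supernatant after 21,000xg for 90 min. Soluble protein was quantified by TMTpro 16plex LC-MS/MS with channel sums equalised, and reported as log2 fold change in thermal stability against DMSO controls, with values from duplicates.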

[2] = compound: NC1(c2ccc(-c3nc4ccn5c(=O)[nH]nc5c4cc3-c3ccccc3)cc2)CCC1
In short: as §1

[3] = compound: NCC(=O)Nc1ccc(-n2nc(C(F)(F)F)cc2-c2ccc3c(ccc4ccccc43)c2)cc1
In short: as §1

entinostat = compound: Nc1ccccc1NC(=O)c1ccc(CNC(=O)OCc2cccnc2)cc1 [entinostat]
In short: as §1

vorinostat = compound: O=C(CCCCCCC(=O)Nc1ccccc1)NO [vorinostat]
In short: as §1

silmitasertib = compound: O=C(O)c1ccc2c(c1)nc(Nc1cccc(Cl)c1)c1ccncc12 [silmitasertib]
In short: as §1

[4] = compound: O=C1NC(=O)C(c2cnc3ccccn23)=C1c1cn2c3c(cc(F)cc13)CN(C(=O)N1CCCCC1)CC2
In short: as §1

[5] = compound: NC(=O)c1cnc(N[C@@H]2CCCC[C@@H]2N)nc1Nc1cccc(-n2nccn2)c1
In short: as §1

citarinostat = compound: O=C(CCCCCCNC(=O)c1cnc(N(c2ccccc2)c2ccccc2Cl)nc1)NO [citarinostat]
In short: as §1

[6] = compound: c1cc(OCCN2CCCCC2)cc(-c2n[nH]c3ccc(-c4nnc[nH]4)cc23)c1
In short: as §1

entospletinib = compound: c1cn2cc(-c3ccc4cn[nH]c4c3)nc(Nc3ccc(N4CCOCC4)cc3)c2n1 [entospletinib]
In short: as §1

Measured: log2 fold change

AASDH (UniProt Q4L235)
inactive: [1] -0.044 | [2] -0.12 | [3] -0.166 | entinostat 0.007 | vorinostat 0.051 | silmitasertib 0.036 | [4] -0.064

ACADL (UniProt P28330)
inactive: [1] 0.074 | entinostat 0.134

ABCB4 (UniProt P21439)
inactive: [5] -0.202 | [2] -0.209 | [3] -0.198 | citarinostat 0.017 | silmitasertib 0.16 | [6] -0.095 | entospletinib 0.013

ABAT (UniProt P80404)
inactive: [4] 0.067

ADAM15 (UniProt Q13444)
inactive: [1] -0.023 | [5] 0.034 | [3] -0.024 | entinostat 0.085 | vorinostat 0.092 | [4] 0.031

ACCS (UniProt Q96QU6)
inactive: [2] 0.008 | vorinostat 0.009 | citarinostat 0.049 | silmitasertib -0.047 | [4] 0.048 | [6] 0.06 | entospletinib -0.066

Looked up one by one from above, 3 records:
AASDH (UniProt Q4L235)
inactive: [1] -0.044 | [2] -0.12 | [3] -0.166 | entinostat 0.007 | vorinostat 0.051 | silmitasertib 0.036 | [4] -0.064

ACCS (UniProt Q96QU6)
inactive: [2] 0.008 | vorinostat 0.009 | citarinostat 0.049 | silmitasertib -0.047 | [4] 0.048 | [6] 0.06 | entospletinib -0.066

ADAM15 (UniProt Q13444)
inactive: [1] -0.023 | [5] 0.034 | [3] -0.024 | entinostat 0.085 | vorinostat 0.092 | [4] 0.031

Further entries

ABRACL (UniProt Q9P1F3)
inactive: [1] -0.043 | [2] -0.002 | entinostat 0.036 | silmitasertib -0.035

ACSL6 isoform 1 (UniProt Q9UKU0)
inactive: [1] 0.061 | [2] -0.152 | [3] -0.174 | entinostat -0.056 | vorinostat 0.048 | silmitasertib -0.077 | [4] -0.421

ABCB11 (UniProt O95342)
inactive: [1] -0.139 | [2] -0.03 | entinostat -0.038 | silmitasertib 0.065

ACBD7 (UniProt Q8N6N7)
inactive: vorinostat -0.081 | citarinostat -0.008 | [6] -0.074 | entospletinib 0.065

ACTC1 (UniProt P68032)
inactive: citarinostat 0.276 | [6] -0.151 | entospletinib 0.009

ABHD4 (UniProt Q8TB40)
inactive: [4] -0.356

ADCK1 (UniProt Q86TW2)
inactive: [1] 0.3 | [2] 0.054 | [3] -0.001 | entinostat 0.195 | silmitasertib -0.013 | [4] 0.121

ACTRT1 (UniProt Q8TDG2)
inactive: [5] -0.188 | [3] -0.176 | vorinostat -0.116 | [4] -0.13

ACAD10 isoform 5 (UniProt Q6JQN1)
inactive: [5] -0.132 | [3] 0.005

ACTR3B (UniProt Q9P1U1)
inactive: [3] -0.217 | vorinostat -0.067

ABCA2 isoform 3 (UniProt Q9BZC7)
inactive: [1] -0.64 | entinostat -0.272 | citarinostat -0.308 | [6] -0.095 | entospletinib 0.241

AARSD1 (UniProt Q9BTE6)
inactive: [5] -0.066 | [2] -0.048 | citarinostat 0.144 | silmitasertib 0.137 | [6] 0.066

ABHD17B (UniProt Q5VST6)
inactive: [5] 0.105 | [2] -0.059 | [3] 0.058 | vorinostat 0.003 | citarinostat -0.059 | silmitasertib 0 | [4] -0.003 | [6] -0.05 | entospletinib 0.099

ABL2 (UniProt P42684)
inactive: [1] -0.463 | entinostat -0.243 | [4] -0.088

ACYP2 (UniProt P14621)
inactive: [1] -0.06 | [2] 0.031 | [3] 0.052 | entinostat 0.11 | citarinostat -0.301 | silmitasertib -0.06 | [6] -0.15 | entospletinib 0.273

ADAMTS13 (UniProt Q76LX8)
inactive: [1] -0.058 | [5] -0.039 | entinostat -0.253 | citarinostat -0.028 | [4] 0.154 | [6] 0.192 | entospletinib 0.264

AACS (UniProt Q86V21)
inactive: [4] 0.197

ACOX1 isoform 3 (UniProt Q15067)
inactive: [3] -0.124

ADAM8 (UniProt P78325)
inactive: [4] -0.106

ADAD1 (UniProt Q96M93)
inactive: [2] -0.144 | [3] -0.174 | vorinostat -0.065 | citarinostat 0.06 | silmitasertib 0.203 | [6] -0.004 | entospletinib -0.119

ACTG1 (UniProt I3L4N8)
inactive: [2] 0.099 | citarinostat 0.029 | silmitasertib -0.067 | [6] 0.073 | entospletinib 0.092

ABHD5 (UniProt Q8WTS1)
inactive: [1] 0.015 | [5] 0.033 | entinostat 0.047 | citarinostat 0.102 | [6] -0.072 | entospletinib 0.121

ABCF1 (UniProt Q5STZ8)
inactive: [5] 0.039 | [3] 0

ACOT7 (UniProt K7EKP8)
inactive: [5] -0.016

ABHD6 (UniProt Q9BV23)
inactive: [1] -0.447 | entinostat -0.036 | vorinostat -0.121 | citarinostat -0.199 | [6] -0.054 | entospletinib 0.212
